Reference: PMC6602948
These are yes or no findings as the source states them, for the method shown. Binding seen in cells or lysates may run through a third protein. Some results given as binding are weak or reduced against the parent protein; the word gives no strength.

Sequences of proteins named here, by UniProt entry; tags and fusion partners are left off. Residues count along the entry.
UniProt Q01097, residues 27-1482: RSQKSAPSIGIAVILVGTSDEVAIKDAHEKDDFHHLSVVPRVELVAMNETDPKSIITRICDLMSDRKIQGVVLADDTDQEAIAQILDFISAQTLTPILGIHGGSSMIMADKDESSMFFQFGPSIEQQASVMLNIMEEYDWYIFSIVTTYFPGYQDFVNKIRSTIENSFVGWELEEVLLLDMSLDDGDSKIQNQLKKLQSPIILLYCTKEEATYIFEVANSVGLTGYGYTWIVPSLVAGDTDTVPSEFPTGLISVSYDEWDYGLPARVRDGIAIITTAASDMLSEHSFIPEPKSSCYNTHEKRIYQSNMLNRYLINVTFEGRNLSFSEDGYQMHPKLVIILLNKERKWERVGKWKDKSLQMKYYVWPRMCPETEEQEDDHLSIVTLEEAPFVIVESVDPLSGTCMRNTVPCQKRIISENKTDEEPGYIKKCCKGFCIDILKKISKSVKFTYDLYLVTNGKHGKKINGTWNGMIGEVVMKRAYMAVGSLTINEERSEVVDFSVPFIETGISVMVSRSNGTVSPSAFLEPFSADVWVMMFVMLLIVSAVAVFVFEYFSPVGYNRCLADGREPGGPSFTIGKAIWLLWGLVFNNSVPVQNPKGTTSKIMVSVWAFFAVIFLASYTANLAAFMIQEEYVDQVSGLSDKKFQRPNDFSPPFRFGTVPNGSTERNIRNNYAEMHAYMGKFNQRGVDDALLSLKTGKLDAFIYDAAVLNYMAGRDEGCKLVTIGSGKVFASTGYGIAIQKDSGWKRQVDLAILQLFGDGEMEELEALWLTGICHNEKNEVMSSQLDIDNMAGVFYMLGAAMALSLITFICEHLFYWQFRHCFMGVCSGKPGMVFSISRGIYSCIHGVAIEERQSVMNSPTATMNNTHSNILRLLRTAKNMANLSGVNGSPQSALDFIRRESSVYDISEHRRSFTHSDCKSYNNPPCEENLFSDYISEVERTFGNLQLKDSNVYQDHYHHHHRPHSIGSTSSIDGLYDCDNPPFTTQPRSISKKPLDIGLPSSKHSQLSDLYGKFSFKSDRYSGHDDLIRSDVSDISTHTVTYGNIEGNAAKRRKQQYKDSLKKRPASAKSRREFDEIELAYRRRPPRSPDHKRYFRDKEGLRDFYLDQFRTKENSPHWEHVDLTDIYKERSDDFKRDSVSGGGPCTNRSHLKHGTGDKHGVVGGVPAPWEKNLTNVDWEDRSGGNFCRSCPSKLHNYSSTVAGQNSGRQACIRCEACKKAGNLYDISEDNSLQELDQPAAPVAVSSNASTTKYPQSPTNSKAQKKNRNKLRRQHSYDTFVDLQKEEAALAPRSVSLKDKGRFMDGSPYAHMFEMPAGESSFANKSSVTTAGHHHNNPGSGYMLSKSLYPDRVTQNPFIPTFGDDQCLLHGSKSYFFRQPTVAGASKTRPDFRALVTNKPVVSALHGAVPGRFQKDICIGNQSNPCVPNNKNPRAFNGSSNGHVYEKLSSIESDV

Target: T1, SAP-102 (mouse (endogenous in mPFC tissue)) (UniProt P70175)
T1 sequence: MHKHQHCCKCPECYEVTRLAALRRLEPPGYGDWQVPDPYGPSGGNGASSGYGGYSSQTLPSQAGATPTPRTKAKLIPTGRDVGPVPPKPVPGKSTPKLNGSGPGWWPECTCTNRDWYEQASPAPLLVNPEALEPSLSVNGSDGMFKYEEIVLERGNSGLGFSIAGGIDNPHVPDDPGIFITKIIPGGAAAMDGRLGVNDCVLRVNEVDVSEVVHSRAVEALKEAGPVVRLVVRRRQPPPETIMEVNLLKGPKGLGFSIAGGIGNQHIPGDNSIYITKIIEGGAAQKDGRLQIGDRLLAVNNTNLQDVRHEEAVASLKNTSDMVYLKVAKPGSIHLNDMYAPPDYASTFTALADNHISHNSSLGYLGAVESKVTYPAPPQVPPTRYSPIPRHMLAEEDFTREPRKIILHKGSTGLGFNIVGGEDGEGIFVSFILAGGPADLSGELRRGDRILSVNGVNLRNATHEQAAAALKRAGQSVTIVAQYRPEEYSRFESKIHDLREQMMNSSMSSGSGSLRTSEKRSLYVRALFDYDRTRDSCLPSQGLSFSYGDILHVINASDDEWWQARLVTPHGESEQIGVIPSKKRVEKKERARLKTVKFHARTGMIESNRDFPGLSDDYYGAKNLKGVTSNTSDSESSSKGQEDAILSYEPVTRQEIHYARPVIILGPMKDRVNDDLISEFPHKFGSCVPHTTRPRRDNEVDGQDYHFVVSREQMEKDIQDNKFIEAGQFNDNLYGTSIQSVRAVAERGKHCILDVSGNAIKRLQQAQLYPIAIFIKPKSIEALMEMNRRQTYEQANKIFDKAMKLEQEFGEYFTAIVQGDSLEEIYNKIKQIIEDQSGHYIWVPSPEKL
Experiment: co-IP; synaptosomal proteins of mPFC tissue from control and PSD-95 knockout mice incubated overnight with 2.5 µg anti-SAP-102; Protein G MagBeads 1-2 h at room temperature; washed three times with 1x PBS; blot for GluN2B (GluA1 as negative control)

binding: binds
Substance: NMDAR subunit GluN2B (from UniProt Q01097 27-1482) (receptor)
